What all share (type): physicochemical
Data set [1] can be described thus: BAK/drug removal by macroporous pHEMA gel plug packed in syringe, 10 consecutive passes. As to conditions: for drug adsorption percentage: first pass through the 10th pass; for percentage of BAK or drug absorbed by plug: 2.5 mL drug/BAK in PBS, 5 mm gel.
The nature of data set [2]: BAK/drug removal by crushed macroporous pHEMA particles in syringe, passes separated by 24 hours.
The nature of data set [3]: Timolol/BAK separation by pHEMA particles from UV-initiated polymerization (EGDMA) in prototype bottle.
A short description of data set [4]: Timolol/BAK separation by pHEMA particles with SR454HP cross-linker in prototype bottle.
Data set [5] is described as follows: Timolol/BAK separation by pHEMA particles with SR9035 cross-linker in prototype bottle.

These results are taken from US10786429B2, “Preservative removal from eye drops” (University of Florida Research Foundation, Inc., priority 2016, dated 2020).

Where a name gives a salt, the structure may show the parent alone.

Regarding `CCN[C@H]1C[C@H](C)S(=O)(=O)c2sc(S(N)(=O)=O)cc21` [Dorzolamide, dorzolamide hydrochloride], the drug adsorption percentage result in data set [1] is “about 5%”.

As for `CC(C)OC(=O)CCC/C=C\C[C@@H]1[C@@H](CC[C@@H](O)CCc2ccccc2)[C@H](O)C[C@@H]1O` [Latanoprost, latanoprost], the figures for the “percentage of BAK or drug absorbed by plug” value in data set [1] (10th pass) and in data set [1] (first run) were 30% and 90%, respectively. For the same molecule, the “drug absorbed (in words)” value in data set [2] (particles pre-equilibrated with the drug solution) was “only a very small portion”.

As to `CC(C)(C)NC[C@H](O)COc1nsnc1N1CCOCC1` [Timolol, timolol maleate], the drug adsorption percentage result in data set [1] was “about 5%”. For the same molecule, the percentage removed entry is listed as “about 1.5%” in data set [3] (each of the 5 runs), “About 18%” in data set [4] (1st run) and “About 25%” in data set [5] (1st run). Besides, the “amount removed (in words)” value in data set [4] (10th run) and in data set [5] (after the 5th run) was “negligible” each time.

In the case of Benzalkonium Chloride [BAK], the “percentage of BAK or drug absorbed by plug” value in data set [1] (10th pass) is 70-80%; in data set [1] (first run), 100%. Further, in data set [2] (all 10 passes, 24 hours between passes, regardless of drug), the “percentage of BAK removed” value is listed as roughly 100%. For the same molecule, the percentage removed is 30% in data set [3] (5th run); “Roughly 50%” in data set [3] (first pass, 1.5 mL, 8 mm plug); “about 90%” in data set [4] (after the 5th run); roughly 100% in data set [4] (first 3-5th runs, 1.5 mL daily, 1.8 cm plug); “about 95%” in data set [5] (10th run); roughly 100% in data set [5] (first 6th runs, 1.5 mL daily, 1.8 cm plug).
